Among the data in patent CN112625131A are binding values, retold here.

By UniProt entry, the sequences of proteins in these tests, tags left out. Residues count along the entry.
UniProt P08581, residues 25-932: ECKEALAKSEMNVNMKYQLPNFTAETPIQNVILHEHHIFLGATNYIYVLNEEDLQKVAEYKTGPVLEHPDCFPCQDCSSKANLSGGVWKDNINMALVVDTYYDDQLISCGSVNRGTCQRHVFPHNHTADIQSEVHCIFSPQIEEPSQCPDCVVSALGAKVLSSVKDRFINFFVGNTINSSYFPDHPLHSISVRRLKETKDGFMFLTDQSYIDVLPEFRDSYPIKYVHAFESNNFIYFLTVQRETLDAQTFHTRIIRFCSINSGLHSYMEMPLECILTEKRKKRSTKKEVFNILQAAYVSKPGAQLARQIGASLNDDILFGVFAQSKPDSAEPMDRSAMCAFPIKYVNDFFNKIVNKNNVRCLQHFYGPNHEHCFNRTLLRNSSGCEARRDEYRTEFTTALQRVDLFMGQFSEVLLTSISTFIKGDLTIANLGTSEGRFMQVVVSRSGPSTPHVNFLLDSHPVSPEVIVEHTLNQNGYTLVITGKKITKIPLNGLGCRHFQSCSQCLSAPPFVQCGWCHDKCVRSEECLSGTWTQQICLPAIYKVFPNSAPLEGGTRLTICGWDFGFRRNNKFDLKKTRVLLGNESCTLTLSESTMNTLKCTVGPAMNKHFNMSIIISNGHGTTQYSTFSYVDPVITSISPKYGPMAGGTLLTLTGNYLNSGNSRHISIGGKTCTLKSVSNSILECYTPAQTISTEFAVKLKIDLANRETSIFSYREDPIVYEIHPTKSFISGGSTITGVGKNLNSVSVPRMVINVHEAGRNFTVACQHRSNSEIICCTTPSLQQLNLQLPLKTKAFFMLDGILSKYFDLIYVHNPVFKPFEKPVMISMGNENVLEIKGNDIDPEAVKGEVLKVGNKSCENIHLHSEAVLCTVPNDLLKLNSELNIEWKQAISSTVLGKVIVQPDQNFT

In this experiment the target is HIS-tagged human c-Met extracellular antigen (NP_000236) (Met 1-Thr 932) (human) (UniProt P08581). In words: phage ELISA on coated c-Met antigen. On the technique in general: An ELISA detects its analyte on a solid surface through an enzyme-linked reagent.

No constants are given. Whether binding was seen depends on the method and setting. Some entries that bind do so weakly or less than the wild type.

B1: 3C36 scFv clone (phage-displayed single-chain antibody) (scFv)
scFv: DIVLTQSPGTLSVTPGDSVSLSCRASQSISSYLHWYQQKSHESPRLLIKYASQSISGIPSRFSGSGSGTDFTLSINSVETEDFGMYFCQQSKSWPFTFGSGTKLEIKSSGGGGSGGGGGGSSRSSEVQLQQSGPELVKPGASVKLSCKASGYTFTSYWIHWVKQRPGQGLEWIGEINPSNGHTYYTEKFKIKATMTLDKSSSTAYMQLSSLTSEDSAVYFCGRYPKGGYFDVWGAGTTVTVSS
With B1, the binding entry is listed as “binds”.

B2: 1D20 scFv clone (phage-displayed single-chain antibody) (scFv)
scFv: DIQMTQTTSSLSASLGDRVTISCRASQDISNYLNWYQQKPDGTVKLLIYYTSRLHSGVPSRFSGSGSGTDYSLTISNLEQEDIATYFCQQGNTLFTFGSGTKLEIKSSGGGGSGGGGGGSSRSSEVQLQQSGDDLVKPGASVKLSCKASGYSFTGYFMDWVMQSHGKSLEWIGRINPNNGDTFYNQKFKGKATLTVDKSSSTAHMELRSLASEDSAVYYCARMKLIGSYMDYWGQGTSVTVSS
B2: the binding result was “binds”.
